Measurements published in publication PMC4579850.
These are yes or no findings as the source states them, for the method shown. In cells and extracts the contact can be indirect. Some binding calls cover weakened binding; strength is not graded here. Sequences can lack the tags named with a protein.

Protein sequences, listed by entry. Tags and fused reporters are not part of them.
UniProt P38634: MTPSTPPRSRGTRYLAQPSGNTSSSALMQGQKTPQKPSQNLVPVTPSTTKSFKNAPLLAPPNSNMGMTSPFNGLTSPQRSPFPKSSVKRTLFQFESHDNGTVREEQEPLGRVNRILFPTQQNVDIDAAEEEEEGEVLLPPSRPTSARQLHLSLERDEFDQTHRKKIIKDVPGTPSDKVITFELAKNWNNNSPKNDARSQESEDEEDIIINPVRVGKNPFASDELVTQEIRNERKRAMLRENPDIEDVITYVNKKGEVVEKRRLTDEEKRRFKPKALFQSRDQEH

Biological target: T1, Mpk1-HA3 (Saccharomyces cerevisiae) (UniProt Q00772)
T1 sequence: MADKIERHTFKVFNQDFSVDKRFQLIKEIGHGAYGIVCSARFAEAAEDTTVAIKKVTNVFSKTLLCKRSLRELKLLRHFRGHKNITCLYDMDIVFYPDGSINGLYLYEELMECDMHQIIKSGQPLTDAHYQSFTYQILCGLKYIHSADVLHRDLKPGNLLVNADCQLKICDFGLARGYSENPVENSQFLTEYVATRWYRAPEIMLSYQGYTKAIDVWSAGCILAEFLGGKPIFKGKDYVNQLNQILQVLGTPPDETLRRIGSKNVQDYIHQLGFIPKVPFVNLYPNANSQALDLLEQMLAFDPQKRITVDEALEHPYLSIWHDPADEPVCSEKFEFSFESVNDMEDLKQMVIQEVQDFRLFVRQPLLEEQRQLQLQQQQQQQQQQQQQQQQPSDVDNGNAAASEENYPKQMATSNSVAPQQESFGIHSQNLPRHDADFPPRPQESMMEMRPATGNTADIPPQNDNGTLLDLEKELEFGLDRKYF
Experiment: co-IP; cells untreated (0 min) or rapamycin-treated (20 and 40 min), fixed 20 min with 1% formaldehyde and quenched with 0.3 M glycine; lysis buffer 50 mM TRIS pH 7.5, 1 mM EDTA, 150 mM NaCl, 0.5% NP40; Mpk1-HA3 immunoprecipitated with anti-HA magnetic matrix, Sic1-myc13 detected with anti-c-Myc; empty vector as control

Sic1-myc13 (from UniProt P38634 1-284)
binding: binds
